No constants are given. Whether binding was seen depends on the method and setting. In cells and extracts the contact can be indirect. A result given as binding can be weak or reduced; the word gives no strength.
Biological target: T1, human epididymis protein 4 (human (endogenous in OVCAR3 and ES-2)) (UniProt Q14508)
T1 sequence: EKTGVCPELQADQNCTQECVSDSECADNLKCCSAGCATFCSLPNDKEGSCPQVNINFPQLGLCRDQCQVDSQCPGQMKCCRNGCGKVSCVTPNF
Test: co-IP; endogenous proteins in RIPA lysates of OVCAR3 and ES-2 cells; immunoprecipitation with anti-HE4 and blot for CD147, and immunoprecipitation with anti-CD147 and blot for HE4; overnight at 4 °C, protein A/G-agarose beads; mouse or rabbit IgG as negative control

Substance: CD147 (extracellular matrix metalloproteinase inducer) (human (endogenous in OVCAR3 and ES-2))
- binding: binds

— article PMC8734417
